Laboratory results published in patent US20130129701, “Methods and Compositions for Sequence Specific RNA Endonucleases” (published 2013).
Numbering of substitutions follows the chain as printed. For part of these data: A negative result means that nothing was seen under these conditions. Tags and fusion partners may be left off the protein sequences shown. For part of these data: For at least one entry, the source does not settle the construct or the ends of the probe.

Legend:
Assay in all cases: activity in cells
[1] = target: T1, ASRE(LacZ) (artificial (Homo sapiens domains)) (UniProt Q14671); details: lacZ mRNA and beta-galactosidase decreased in E. coli; 5 mM Mn2+; protein in cells; protein details: pET43.1b Nus/His, fusion to SMG6 PIN domain
T1 sequence: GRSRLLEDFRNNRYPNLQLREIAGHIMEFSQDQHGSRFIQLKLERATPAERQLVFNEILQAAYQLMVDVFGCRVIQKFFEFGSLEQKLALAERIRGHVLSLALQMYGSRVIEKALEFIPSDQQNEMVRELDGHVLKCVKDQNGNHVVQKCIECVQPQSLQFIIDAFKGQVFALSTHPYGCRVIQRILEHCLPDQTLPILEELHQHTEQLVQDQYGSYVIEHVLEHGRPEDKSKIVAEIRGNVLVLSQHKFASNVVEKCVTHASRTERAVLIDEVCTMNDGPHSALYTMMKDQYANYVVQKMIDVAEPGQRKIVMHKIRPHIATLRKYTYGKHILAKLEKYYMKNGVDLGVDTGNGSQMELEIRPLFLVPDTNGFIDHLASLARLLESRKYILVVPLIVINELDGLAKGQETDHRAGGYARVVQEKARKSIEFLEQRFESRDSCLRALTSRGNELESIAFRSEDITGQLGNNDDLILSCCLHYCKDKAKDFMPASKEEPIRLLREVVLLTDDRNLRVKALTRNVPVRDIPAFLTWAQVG

[2] = target: T2, ASRE(87621) (artificial (Homo sapiens domains)) (UniProt Q14671); details: non-specific control ASRE; no comparable silencing; protein in cells; protein details: pET43.1b Nus/His, fusion to SMG6 PIN domain
T2 sequence: T1 sequence with Q40E, S108C, E112Q, S252N, E256Q, N295S, Q299E

[3] = target: T3, mitoASRE(ND5) (artificial (Homo sapiens domains)) (UniProt Q14671); details: tetracycline-induced 293 stable cells, 24 h; protein in cells
T3 sequence: T1 sequence with Q40E, C72N, R73Y, S216N, E220Q, S252N, E256Q

Sequence | functional effect [1] | functional effect [2] | functional effect (% mRNA decrease) [3]
UGGAUGAA [lacZ mRNA site] | active | not active | –
UUUAUGUG [mtND5 mRNA site] | – | – | 70
